According to PubChem BioAssay AID652054 (National Center for Advancing Translational Sciences (NCATS), 2013):
Out of some 360,000 compounds screened, about 9,100 (2.5%) were called active. This list was built around the results that the source calls inconclusive (neither active nor inactive); the mix of calls is not that of the screen. Cut-off read from the data, not from the text of the source: active = max response below about -50%; inconclusive = no clear call, values can overlap the other calls; inactive = above that.

Protein sequences, listed by entry. Tags and fused reporters are not part of them.
UniProt P35462, whole entry, looked up: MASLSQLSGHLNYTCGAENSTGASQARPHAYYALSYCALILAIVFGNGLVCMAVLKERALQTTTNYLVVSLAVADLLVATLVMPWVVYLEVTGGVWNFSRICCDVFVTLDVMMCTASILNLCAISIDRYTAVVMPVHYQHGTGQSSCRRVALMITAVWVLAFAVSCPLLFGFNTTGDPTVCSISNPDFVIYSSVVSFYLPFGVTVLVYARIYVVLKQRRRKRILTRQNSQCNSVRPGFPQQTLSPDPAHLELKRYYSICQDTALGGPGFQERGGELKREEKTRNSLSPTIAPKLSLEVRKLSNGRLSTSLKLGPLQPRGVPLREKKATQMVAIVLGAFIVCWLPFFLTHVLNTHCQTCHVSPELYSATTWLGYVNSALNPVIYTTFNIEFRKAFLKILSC

Molecular target: D(3) dopamine receptor (Homo sapiens) (UniProt P35462)
Test: qHTS of D3 Dopamine Receptor Antagonist: qHTS
Conditions: D3R cells, DiscoveRx beta-arrestin luminescence, antagonist mode; stronger effect = lower value
Summary of the method: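 Cells plated overnight at 1500 cells/well, then exposed to library compounds with dopamine controls for 90 minutes at 37 degrees C. DiscoveRx reagent added for 30–60 minutes at room temperature; luminescence read, quantitative HTS format.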
% is set by controls: 0 for no effect and ±100 for the full control effect.

Max response, negative = inhibition, active:
CNc1ccc(-c2cccc([N+](=O)[O-])c2)cn1 -59.1%
Cc1nc2c(OCc3ccc(Cl)cc3Cl)cccn2c1N(C)Cc1cccs1 -70.7%
Cc1ccccc1N1C(=O)c2sc3nc4c(c(=O)n3c2C1=O)CCC4 -57.2%
c1cncc(-c2nnc(-c3ccco3)o2)c1 -108%
Oc1c(Br)cc(Br)cc1C=Nc1ccc2c(c1)OCO2 -128%
CNC(=S)NNC(=O)COc1cccc(C)c1C -62.1%
CCn1c(CO)nc2c1c(=O)[nH]c(=O)n2Cc1ccccc1 -80.3%
Cc1nnc(NC(=O)c2ccc(S(=O)(=O)N(C)Cc3ccccc3)cc2)o1 -72.2%
COc1ccc(OC)c(N2C(=O)CC(Cc3cc(C)cc(C)c3)C2=O)c1 (stereo not drawn) -192%
CSc1cccc(NC(=S)N(CCCN2CCCC2)Cc2cccs2)c1 -64.4%
COc1ccc(NC(=O)c2cnn(-c3ccccc3)c2C)c(OC)c1 -61.1%
COc1ccccc1N1CCN(C2CCCN(C(=O)c3cccc(-c4ccco4)c3)C2)CC1 (stereo not drawn) -65.8%
O=[N+]([O-])c1ccccc1/C=C/CN1CCN(Cc2ccc3c(c2)OCO3)CC1 -78.7%

Max response, negative = inhibition, inconclusive:
CC(C)CCNC(=S)Nc1ccccc1F -37.5%
O=C(NCN1CCc2ccccc2C1)c1cnccn1 -47.3%
COc1cccc(CNC(=O)CN2C(=O)CSc3ccc(S(=O)(=O)N4CCCCC4)cc32)c1 -32%
CCOC(=O)N1CCN(Cc2ccc(O)c3ncccc23)CC1 -35%
COC(=O)Cc1cc(=O)n2[nH]c(C)c(-c3ccccc3)c2n1 -33.6%
CCc1cc(-c2[nH]ncc2-c2ccc([N+](=O)[O-])cc2)c(O)cc1OC -30.3%
CC(=O)Nc1cc(-c2nn(C)c(=O)c3ccccc23)ccc1N1CCOCC1 -39.6%
CC1=CC(C)(C)N2C(=O)C3(NCCc4c3[nH]c3ccccc43)c3cc(C)cc1c32 (stereo not drawn) -37.8%
O=C(Cn1cc2c(n1)CCCCC2)NCCCN1CCOCC1 -30.6%
COc1ccc(OC)c(NC(=S)NCCN2CCOCC2)c1 -35%
CCCn1c(NCc2cccc(OC)c2OC)nc2ccccc21 -34.9%
COc1ccc(/C=N/NC(=O)CCN2CCN(c3ccccc3)CC2)c(OC)c1OC -46.5%
O=C(Oc1cccnc1)c1ccco1 -40.4%
COc1ccccc1-c1nnc(NC(=O)Cc2ccccc2)o1 -32.2%
Cc1noc(C)c1S(=O)(=O)N1CCC(C(=O)NC2CCN(Cc3ccccc3)CC2)CC1 -38%
CCOC(=O)c1nnc2cc(C)nn2c1C -34.5%
COc1ccc(/C=C2\N=C(c3ccc(C)cc3)OC2=O)cc1 -34.4%
Cc1ccc(C(c2nnnn2Cc2ccccc2)N2CCN(Cc3ccccc3)CC2)cc1 (stereo not drawn) -44.8%
COc1ccc(NC(=O)CSc2nc3[nH]c(=O)cc(O)c3s2)cc1OC -33.8%
COc1ccc(N2C(=O)CC(Nc3ccc(C)cc3)C2=O)cc1 (stereo not drawn) -44.1%
Cc1cccc(NS(=O)(=O)c2ccc(C)c(C(=O)NC3CCN(Cc4ccccc4)CC3)c2)c1 -37.9%
CCN1CCN(CC(O)COc2ccc3c(C)cc(=O)oc3c2)CC1 (stereo not drawn) -33.3%
Cc1cc(C(=O)N/N=C/c2ccc(O)c([N+](=O)[O-])c2)n[nH]1 -41.3%
CCCCOc1ccc(NC(=O)Cn2c(=O)ccc3c(C)cc(C)nc32)cc1 -35.3%
Cc1cc(N/N=C/c2cccc(F)c2)nc(NCc2ccccc2)n1 -44.9%
O=C1c2ccccc2C(=O)N1CCn1nc(Cl)nc1Cl -34.1%
CCOc1ccc2nc(N(CCN(C)C)C(=O)c3cc4ccccc4cc3OC)sc2c1 -38.7%
COc1cccc(C(=O)NCCS(=O)(=O)N(C)Cc2ccccc2)c1 -32.2%
CCOc1ccc(C2/C(=C(/O)c3ccc(OC)cc3)C(=O)C(=O)N2c2cc(C)on2)cc1OC (stereo not drawn) -31.2%
O=C1CCc2cc(S(=O)(=O)N3CCC(C(=O)NC4CCCCCCC4)CC3)ccc2N1 -41.2%
COc1ccc2cc(CN(CCCN3CCOCC3)Cc3nnnn3C3CCCC3)c(=O)[nH]c2c1 -48.1%
Cc1[nH]c(-c2ccc(F)cc2)cc1C(=O)N1CCN(c2cccc(Cl)c2)CC1 -32.6%
COc1ccc(NC(=O)c2sc(NC(=O)COc3ccccc3)nc2C)cc1 -32.5%
CNCc1cc2ccc(C)cc2[nH]c1=O -38.2%
O=C1C=C(c2ccc3c(c2)OCO3)C[C@@H](c2ccc(Cl)cc2)C1 -40%
COc1ccc(Cc2c(-c3ccccc3)nc3ccc(Br)cn23)c(C)c1 -35%
O=C1CC(N2CCC(O)(c3ccc(Br)cc3)CC2)C(=O)N1c1ccc(Cl)cc1 (stereo not drawn) -32.2%
Cc1ccc2c(c1)[C@H]1[C@H](CO2)[C@H](c2ccccc2)[C@]2(C)C(=O)Nc3ccccc3C(=O)N12 -44.2%
CCCCOC(=O)c1ccc(NC(=S)NC(=O)c2ccco2)cc1 -36.9%
COc1cc(/C=N/NC(=O)CCc2n[nH]c(=O)[nH]c2=O)cc(OC)c1OC -30.8%
COc1ccc(-c2cn(Cc3ccc(C(N)=O)cc3)c(-c3ccc(Cl)nc3)n2)cc1 -34.9%
Cc1cc(C)cc(NC(=O)c2ccc([N+](=O)[O-])o2)c1 -41.6%
CCCC[C@@H]1CNC(=O)C(=O)N1CC1CCCCC1 -36.2%
O=C(COc1ccc(Br)cc1CNCCCN1CCOCC1)Nc1ccccc1 -43.3%

Not a retest: entries from further up.
Max response, negative = inhibition, inconclusive:
CCOC(=O)c1nnc2cc(C)nn2c1C -34.5%
COc1ccc(/C=C2\N=C(c3ccc(C)cc3)OC2=O)cc1 -34.4%
Cc1ccc(C(c2nnnn2Cc2ccccc2)N2CCN(Cc3ccccc3)CC2)cc1 (stereo not drawn) -44.8%
COc1ccc(NC(=O)CSc2nc3[nH]c(=O)cc(O)c3s2)cc1OC -33.8%

Next part.

Max response, negative = inhibition, inactive:
CCCCC(CC)COC(=O)c1ccc(N(C)C)cc1 (stereo not drawn) 23.9%
COc1ccc(-c2cc(CNC(C)=O)on2)cc1 -1.38%
C(=N\Nc1nc2ccccc2[nH]1)/c1c[nH]c2ccccc12 30.4%
Cc1cccc2cc(C3CC(c4cccs4)=NN3C(=O)CCC(=O)O)c(Cl)nc12 (stereo not drawn) 16.8%
O=C(Oc1c(Br)cc([N+](=O)[O-])cc1Br)c1cccnc1 -29.1%
O=C(OCc1cc(=O)n2ccsc2n1)C1(c2ccccc2)CC1 -2.44%
Cc1ccc(C)c(NC(=O)c2cc(-c3cccnc3)nc3ccccc23)c1 34.8%
CCOC(=O)N1CCN(C(=O)c2ccc(Cn3c(=S)[nH]c4ccc(Br)cc4c3=O)cc2)CC1 27.2%
C(=N\N1CCN(Cc2ccccc2)CC1)/c1ccc(-c2ccccc2)cc1 16.8%
CCOC(=O)C1CCN(C(=O)C(=O)N2CCC(C(=O)OCC)CC2)CC1 -19.5%
c1ccc(-c2nc(-c3ccncc3)no2)cc1 -8.79%
COc1cccc(-n2c(SCC(=O)Nc3cc(C)on3)nc3ccccc3c2=O)c1 3.6%
COc1ccc(-c2cc(C(F)(F)F)c3c(n2)sc2c(O)cc(=O)[nH]c23)c(OC)c1 10.8%
O=C(Nc1ccccc1Cl)c1ccc([N+](=O)[O-])o1 5.24%
CCCCn1c(N)c(N(CCC(C)C)C(=O)C2CC(=O)N(c3ccc(OC)cc3OC)C2)c(=O)[nH]c1=O (stereo not drawn) 7.91%
CC1(C(=O)NCc2ccc3c(c2)OCO3)CCN1C(=O)CCc1ccc(Cl)cc1Cl (stereo not drawn) 23.9%
Cc1ccc(C(=O)NCCc2nnc3c(C(F)(F)F)cc(Cl)cn23)o1 9.03%
COc1cccc(N2CC(C(=O)Nc3ccc(F)cc3)CC2=O)c1 (stereo not drawn) -1.95%
Cc1cccc(C(=O)N2CCC(=O)N([C@H](COCc3ccc(Cl)cc3)Cc3ccccc3)CC2)c1 -0.874%
Cc1ccc2c(Cl)c(C(=O)NCCCN3CCOCC3)sc2c1 -7.61%
COc1ccc(NC(=O)NC(C)(C(F)(F)F)C(F)(F)F)cc1 0.439%
CC(OC(=O)c1cc(=O)c2ccccc2o1)C(=O)c1ccccc1 (stereo not drawn) 22%
O=C(NCc1ccco1)c1cccc2c1C(=O)N(C1CCCCC1)C2 -7.1%
COc1ccc(NC(=O)Cc2coc3ccc4ccccc4c23)cc1S(=O)(=O)N1CCOCC1 -6.99%
C[C@@H]1C(=O)O[C@H]2[C@H]1CC[C@@]1(C)C(=O)C=C[C@@](C)(O)[C@H]21 65.3%
CCc1ccc(NC(=O)CSc2nc3ccccc3c(=O)n2CCCC(=O)NCCCN2CCOCC2)cc1 3.19%
Cc1cc(NS(=O)(=O)c2ccc(NC(=O)Cc3ccc([N+](=O)[O-])cc3)cc2)nc(C)n1 -17.4%
C=CCNC(=S)N/N=C(\C)c1cccc(OC)c1 -21%
COc1ccccc1CNC(=O)C[C@@H]1C[C@H]2c3cc(NC(=O)c4ccc5c(c4)OCO5)ccc3O[C@H]2[C@@H](CO)O1 -9.15%
COCCCNC(=O)c1cn(C)c(=O)c2c1c1ccccc1n2C 21.3%
CC1(c2ccccc2Cl)NC(=O)N(CC(=O)Nc2ccc(N3CCOCC3)cc2)C1=O (stereo not drawn) 8.05%
